Patent US6518252B2, “Method of treating aquatic animals with an antimicrobial agent and chelating agent” (priority 2000, dated 2003)
Some results were stated once for a whole list of compounds, not compound by compound.

Experiments:
[1] = test system: Pseudomonas aeruginosa; experiment: Minimal Bactericidal Concentration (MBC), EDTA and neomycin in 50 mM Tris; format: cell-based; details: Ps. aeruginosa
[2] = test system: Enterococcus faecalis; experiment: as above; format: cell-based; details: Ent. faecalis

Substance: neomycin
- Decrease of MBC value when combined compared to individually administered [1]: at least 75%
- Decrease of MBC value when combined compared to individually administered [2]: at least 75%
